Most values lie at the floor of the assay. Slopes are relative: functional sequences can read slightly below zero.
These substances were tested on Saccharomyces cerevisiae PS128 hsf1 delta, HSF1(1-493) fusion (assay: growth estimate (transactivation domain function in HSF1 fusion, heat-shock survival) (a.u. (slope of normalised read count over time)); higher = stronger growth at 37°C, i.e. more transactivation activity). Conditions: library: random library.
Experimental: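 Random 60-nt DNA library encoding peptides of up to 20 aa, fused to the C-terminus of yeast HSF1 residues 1-493 (C-terminal TAD deleted) and expressed from the native HSF1 promoter on a CEN plasmid in hsf1-deleted S. cerevisiae PS128. Cells were selected at 37°C on -trp 5-FOA plates for 0, 2, 4, 6 and 8 days and amplicons were sequenced. Growth estimate is the slope of a robust linear fit of total-sum-normalised read counts (normalised to the first time point) over time, using at least 2 replicates. Sequences are classed functional (TAD activity) above a threshold of -0.13, set from stop-codon control sequences.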
RSGVGMFEIGVNKVFPGSAG gave a growth estimate of less than -0.25.
VRFTGEPCSDWFDVPATLKI gave a growth estimate of less than -0.25.
Substance SLSVVVSPLDSLPDDFPGLG has a growth estimate of -0.0568.
KVT gave a growth estimate of less than -0.25.
For YGPYTVLLLYPVKRLRESMG, the growth estimate was less than -0.25.
TQWEHEESLFDIFMTMVMGG was tested, and the growth estimate was less than -0.25.
TSTGAIGAPVEFLVMINGGI showed a growth estimate of less than -0.25.
TTRVNRINSASVKFGDVSRS was tested, and the growth estimate was less than -0.25.
FRQVSHVYSPAG gave a growth estimate of less than -0.25.
With KSKCARSVCRL the growth estimate was less than -0.25.
PGTWSSSYGTLYGTM showed a growth estimate of less than -0.25.
Substance LPTSERSGLWDQAVEALVPC has a growth estimate of less than -0.25.
For QFV, the growth estimate was less than -0.25.
TYAHSDGYFCVIRNEVLRVV gave a growth estimate of less than -0.25.
LLNYLS gave a growth estimate of less than -0.25.
Work on WIFKKASSRAISLGTPL yielded a growth estimate of less than -0.25.
With RMSAPP the growth estimate was less than -0.25.
WYLCSQQGRKDNGSFCANYE gave a growth estimate of less than -0.25.
ELCSSMATATSILQSGSLSG gave a growth estimate of less than -0.25.
Work on LRWAYIEVECLAELRDLFSR yielded a growth estimate of less than -0.25.
SQVGMEGYMCNSSHLERYPN gave a growth estimate of less than -0.25.
GHAGTA gave a growth estimate of less than -0.25.
CGESGTRGLWNRGTHAGTAR showed a growth estimate of less than -0.25.
RYSACHRNLCSSPLYIVEGD was tested, and the growth estimate was less than -0.25.
In the case of GQWKGLVALR, the growth estimate is reported as less than -0.25.
With KSG the growth estimate was less than -0.25.
In the case of HVIRSPAYELTKVRYLS, the growth estimate is reported as less than -0.25.
In the case of TDCQLPLGSRFVSRSRRRHG, the growth estimate is reported as less than -0.25.
With AGLV the growth estimate was less than -0.25.
In the case of TSGCRDL, the growth estimate is reported as less than -0.25.
DVTDHQSRS showed a growth estimate of less than -0.25.
PTFGFRAIEEECK gave a growth estimate of less than -0.25.
GSAFPQLLW gave a growth estimate of less than -0.25.
Substance EMAGTSSCPCRGGHLYDRTC has a growth estimate of less than -0.25.
Work on HRSRPPVYRFSKAMVRV yielded a growth estimate of less than -0.25.
RMLYDPDTKVDVGG showed a growth estimate of less than -0.25.
KTLHGTFQLGRLRTIFLGWP showed a growth estimate of less than -0.25.
Substance SVRVRSTGLPTRLR has a growth estimate of less than -0.25.
GCNNPLSPTCSPSLGRLDPP gave a growth estimate of less than -0.25.
LNRNVSHTASDGIAEYKAAV was tested, and the growth estimate was less than -0.25.
In the case of GPCGCLYLQQLIFGEWPTTS, the growth estimate is reported as less than -0.25.
IVF was tested, and the growth estimate was less than -0.25.
With ASRSKNFVHCTGIFVQTAR the growth estimate was less than -0.25.
GFALKPSETYAFYLNP gave a growth estimate of less than -0.25.
Substance RTCKTPDPVLNKVGHPVLSL has a growth estimate of less than -0.25.
TRRYRPAAGRRFRVCLKMRH gave a growth estimate of less than -0.25.
LPPRARRANAKGAALVEKQL gave a growth estimate of less than -0.25.
In the case of TSSKF, the growth estimate is reported as less than -0.25.
RKSLG was tested, and the growth estimate was less than -0.25.
Work on SQRDRHINPHTRKLDSLR yielded a growth estimate of less than -0.25.
In the case of LRPPWKALAPSPSVCHVCGF, the growth estimate is reported as less than -0.25.
In the case of TVAAGM, the growth estimate is reported as less than -0.25.
For WSQFVVLVSLPP, the growth estimate was less than -0.25.
VSTCTSPLPK showed a growth estimate of less than -0.25.
Substance VEARGRTCRGVPPIVLWGSG has a growth estimate of less than -0.25.
EHGIAVRIARRRLVCNRLEM gave a growth estimate of less than -0.25.
Work on VSNLIHYDNSMSVGTTYIAL yielded a growth estimate of less than -0.25.
ANRSLYLLKSLLTARVEWCP showed a growth estimate of less than -0.25.
In the case of GNVWPKPYYILRRPKKPSLR, the growth estimate is reported as less than -0.25.
GYWSFKHGINKTKP gave a growth estimate of less than -0.25.
Substance IVRGCTQPANHCPI has a growth estimate of less than -0.25.
Substance NYEAWVGGRDGPREES has a growth estimate of less than -0.25.
RQIPWDPFRPRSTCVHVHAA showed a growth estimate of less than -0.25.
Work on SANLAD yielded a growth estimate of less than -0.25.
With SLPMTGHFHERAPWVHALY the growth estimate was less than -0.25.
In the case of SSCT, the growth estimate is reported as less than -0.25.
Work on DVQLAFN yielded a growth estimate of less than -0.25.
In the case of GFRA, the growth estimate is reported as less than -0.25.
In the case of ITIFLYDAS, the growth estimate is reported as less than -0.25.
SRRFRPTLRGLHVSHKK showed a growth estimate of less than -0.25.
EPGRLGVMSSSQLAPNSFER was tested, and the growth estimate was less than -0.25.
For VVRHLIRQGSELRDSGTTLL, the growth estimate was less than -0.25.
SAE showed a growth estimate of less than -0.25.
NSRLRPGRT was tested, and the growth estimate was -0.246.
For PED, the growth estimate was less than -0.25.
Work on FTCPVRKLASRGQRELMFSE yielded a growth estimate of less than -0.25.
Work on AFS yielded a growth estimate of less than -0.25.
CRALTYPDTVNANAQQTGRG showed a growth estimate of less than -0.25.
In the case of NYQVTRLGV, the growth estimate is reported as less than -0.25.
LVWWTWETGLWNRRHLIRHQ gave a growth estimate of less than -0.25.
Substance VGSRIEVCR has a growth estimate of less than -0.25.
ATPGHKERGVRSDETP gave a growth estimate of less than -0.25.
Work on SEQRAADT yielded a growth estimate of less than -0.25.
AVRTSRGR showed a growth estimate of less than -0.25.
With LCYPGSCGAGRTPCSAPISY the growth estimate was less than -0.25.
For SFD, the growth estimate was less than -0.25.
Substance ISGVSTEAEKCFIHVNPYGT has a growth estimate of less than -0.25.
ARLTCEEPFDLLPGICSSNS was tested, and the growth estimate was less than -0.25.
RLRCGKGWLGVKYWEALTPD was tested, and the growth estimate was less than -0.25.
Substance TQARDTPILLTGERLLDHVG has a growth estimate of less than -0.25.
Work on EVSIRCKMTARLSG yielded a growth estimate of less than -0.25.
WIGVLLVGSNWPSFNRKV showed a growth estimate of -0.245.
For PLLCLCDV, the growth estimate was less than -0.25.
APKAEECQVILSPIRGLKVW showed a growth estimate of less than -0.25.
For RNDAKRRTLTSETGAETTGR, the growth estimate was less than -0.25.
In the case of SWIRRSVSQF, the growth estimate is reported as less than -0.25.
DTYCTI showed a growth estimate of less than -0.25.

From the supplement of paper PMC5949888
